Results reported in US20240076384A1.
No constants are given. Whether binding was seen depends on the method and setting. Some binding calls cover weakened binding; strength is not graded here.

Chains of the proteins cited; added tags and fusions are not shown. Residues count along the entry.
UniProt P20138, residues 18-364: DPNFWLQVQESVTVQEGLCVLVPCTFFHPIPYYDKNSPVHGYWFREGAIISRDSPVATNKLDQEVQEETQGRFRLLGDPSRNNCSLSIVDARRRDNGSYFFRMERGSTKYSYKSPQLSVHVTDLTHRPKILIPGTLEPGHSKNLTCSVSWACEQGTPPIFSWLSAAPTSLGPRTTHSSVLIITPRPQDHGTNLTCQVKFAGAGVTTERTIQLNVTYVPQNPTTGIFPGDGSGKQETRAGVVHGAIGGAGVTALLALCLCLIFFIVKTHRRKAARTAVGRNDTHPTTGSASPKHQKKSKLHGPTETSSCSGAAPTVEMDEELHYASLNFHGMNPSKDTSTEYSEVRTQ

T1: mouse NKG2D expressed on cells (mouse) (UniProt O54709)
T1 sequence (looked up): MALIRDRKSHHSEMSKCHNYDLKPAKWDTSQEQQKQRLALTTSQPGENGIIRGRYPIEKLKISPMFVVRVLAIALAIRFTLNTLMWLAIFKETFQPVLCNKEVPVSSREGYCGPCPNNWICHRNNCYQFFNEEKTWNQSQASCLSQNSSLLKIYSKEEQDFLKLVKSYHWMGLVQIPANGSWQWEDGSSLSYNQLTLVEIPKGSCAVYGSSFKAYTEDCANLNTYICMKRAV

B1: parental CD33 monoclonal antibody (antibody, V domains shown)
VH: QVQLVQSGAEVKKPGASVKVSCKASGYTFTDYVVHWVRQAPGQGLEWMGYINPYNDGTKYNEKFKGRVTMTRDTSISTAYMELSRLRSDDTAVYYCARDYRYEVYGMDYWGQGTLVTVSS
VL: DIVLTQSPASLAVSPGQRATITCTASSSVNYIHWYQQKPGQPPKLLIYDTSKVASGVPARFSGSGSGTDFTLTINPVEANDTANYYCQQWRSYPLTFGQGTKLEIK
B2: CD33-TriNKET-A49 (ADI-27749 and a CD33 binding domain) (bispecific antibody, V domains shown)
VH 1: EVQLVESGGGLVKPGGSLRLSCAASGFTFSSYSMNWVRQAPGKGLEWVSSISSSSSYIYYADSVKGRFTISRDNAKNSLYLQMNSLRAEDTAVYYCARGAPMGAAAGWFDPWGQGTLVTVSS
VL 1: DIQMTQSPSSVSASVGDRVTITCRASQGISSWLAWYQQKPGKAPKLLIYAASSLQSGVPSRFSGSGSGTDFTLTISSLQPEDFATYYCQQGVSFPRTFGGGTKVEIK
VH 2: B1 VH
VL 2: B1 VL

Experiments:
[1] = target: CD33 expressed on human AML cell line MV4-11 (human) (UniProt P20138); assay: flow cytometry on MV4-11 cells, anti-human IgG detection, fold over background
[2] = target: CD33 expressed on human AML cell line MV4-11 (human) (UniProt P20138); assay: flow cytometry on Mv4-11 cells, anti-human IgG secondary, fold over background against secondary antibody control
[3] = target: T1, mouse NKG2D expressed on cells (mouse); assay: flow cytometry on cells expressing mouse NKG2D

Row | Binder | binding [1] | binding [2] | binding [3]
1 | B1 | binds | binds | –
2 | B2 | – | – | binds
